Source: publication PMC12040169 (PLOS Biology, 2025)
Some of the results follow.

The molecules below were run on T1, CTL2-GFP (C. trachomatis L2/434/Bu, GFP-expressing). Conditions: bulk GFP, single well; 28.5 h, 10 µM; inhibitor.
T1 construct: L2/434/Bu, GFP-expressing
Set-up: species or system HeLa; Intracellular C. trachomatis growth in HeLa cells, bulk GFP fluorescence relative to DMSO

Structure (SMILES) | % of control remaining [%]
CC(C)Cn1cncc1CN1C(=O)CC2(CCCC2)CC1=O [CBK306600] | 119.417
Cc1cc(C(=O)NCCCC2CCOC2)c2cccc(Cl)c2n1 (stereo not drawn) [CBK282550] | 81.2142
CC(C)(C)OC(=O)N1CCC(CNS(=O)(=O)c2cc(Cl)sc2Cl)CC1 [CBK086018] | 122.457
CCC(C(=O)NCCCN1CCOCC1)c1ccccc1 (stereo not drawn) [CBK265103] | 154.045
CCCC(=O)Nc1nc(-c2ccc(C)cc2)c(C)s1 [CBK287763] | 92.5308
Cc1cc2c(cc3c(=O)n(CC(=O)NC4CC4)nc(C)n32)s1 [CBK284067] | 151.963
O=C(COC(=O)C1CCN(S(=O)(=O)c2cccc3cccnc23)CC1)c1ccc([N+](=O)[O-])cc1 [CBK264412] | 119.662
O=C(O)c1cc(S(=O)(=O)Nc2ccc3nc(N4CCCC4)sc3c2)ccc1Br [CBK296710] | 101.037
O=C1CC(SCCc2nc3ccccc3[nH]2)C(=O)N1c1cccc(F)c1 (stereo not drawn) [CBK266671] | 158.445
COc1ccc(-c2[nH]c3ncccc3c2CN2CCSCC2)cc1 [CBK285338] | 122.927
Cc1cccc(-c2ncc(C(=O)Nc3nccs3)cc2-c2ccco2)c1 [CBK037427] | 134.484
COC(=O)c1ccccc1Oc1nc(OC)cc(OC)n1 [CBK092217] | 107.862
CC(=O)Nc1ccc(S(=O)(=O)N2CCN(c3ccc(C(F)(F)F)cc3[N+](=O)[O-])CC2)cc1 [CBK264293] | 114.548
Cc1ccc(NC(=O)C(=O)NCCCN2CCOCC2)cc1C [CBK264836] | 112.031
CC(=O)Nc1cccc(NC(=O)N2CCCCC2CO)c1 (stereo not drawn) [CBK156181] | 112.057
COc1cc(OC)nc(C(NC(=O)C2CCN(C(=O)c3ccno3)CC2)c2ccc(Cl)cc2)n1 (stereo not drawn) [CBK060169] | 98.3441
Cc1cc(OCC(=O)N2CCC(C(=O)Nc3ccccc3)CC2)no1 [CBK305067] | 174.454
c1nc(Nc2ccc3[nH]ccc3c2)cc(-c2ccc(N3CCOCC3)cc2)n1 [CBK090851] | 111.747
O=C(Nc1cccc(N2CCNCC2)c1)c1ccccc1 [CBK028255T] | 139.713
CCCCNC(=O)Nc1ncc(-c2ccc(C#N)cc2)nc1-c1ccc(C(=O)N2CCOCC2)cc1 [CBK105766] | 83.3024
CCc1noc(C)c1C(=O)N1CCN(C(C#N)C2CCCCC2)CC1 (stereo not drawn) [CBK304916] | 142.696
O=C(O)CCCC(=O)Nc1ccccc1-c1ccccc1 [CBK231405] | 136.464
Clc1nccnc1NCCOc1ccccc1 [CBK113564] | 101.379
O=C(NCCN1CCOCC1)c1cc(-c2ccc(F)cc2)nc2ccc(Br)cc12 [CBK294450] | 141.983
O=C(Cc1cc(F)c(F)c(F)c1)Nc1cnccn1 [CBK161764] | 115.441
O=C(Nc1ccc(C(=O)OCC(=O)c2cccc3ccccc23)cc1)c1ccccc1 [CBK265518] | 87.3027

Molecules listed so far that have an NH in an aromatic ring:
Structure (SMILES) | % of control remaining [%]
O=C1CC(SCCc2nc3ccccc3[nH]2)C(=O)N1c1cccc(F)c1 (stereo not drawn) [CBK266671] | 158.445
COc1ccc(-c2[nH]c3ncccc3c2CN2CCSCC2)cc1 [CBK285338] | 122.927
c1nc(Nc2ccc3[nH]ccc3c2)cc(-c2ccc(N3CCOCC3)cc2)n1 [CBK090851] | 111.747

Continued:

Structure (SMILES) | % of control remaining [%]
O=[N+]([O-])c1cc(S(=O)(=O)Nc2ccc(C(O)(C(F)(F)F)C(F)(F)F)cc2)ccc1Cl [CBK062106] | 109.969
O=C(Nc1nc2ccccc2s1)c1cccnc1Cl [CBK071983] | 95.6294
COc1ccc(Cl)c(NC(=O)NCCN2CCN(c3ccccc3)CC2)c1 [CBK268899] | 132.473
CC(C)c1nnc(CCC(=O)N2CCC(c3ccccc3)C2)o1 (stereo not drawn) [CBK281925] | 151.149
Cn1cc(CCC(=O)N2CCc3[nH]c4ccc(Cl)cc4c3C2)cn1 [CBK304636] | 153.57
O=C(O)c1sc2cc(C(F)(F)F)cnc2c1-c1cccs1 [CBK089890] | 58.4041
COc1ccc(CCN2CCN(c3nccnc3OCc3cc(C)on3)CC2)cc1OC [CBK084207] | 86.2367
COc1cc(CN2CCc3c([nH]c4ccccc34)C2)c([N+](=O)[O-])cc1OC [CBK261588] | 100
O=C(Nc1ccc2[nH]ccc2c1)c1c(F)ccc(Cl)c1F [CBK159673] | 94.8885
Cc1cc(NS(=O)(=O)c2ccc(Cl)c(Cl)c2)n(C)n1 [CBK067254] | 134.737
OC1CCC(Nc2cncc(-c3cccc(Cl)c3)n2)CC1 (stereo not drawn) [CBK066031] | 119.696
O=C(O)CSc1cccc2cccnc12 [CBK126918] | 178.927
CCN(CC)C(=O)c1sc2nc(-c3cccs3)nc(C)c2c1N [CBK115366] | 84.9115
COc1ccc(-c2cncc(N3CCN(C)CC3)n2)cc1 [CBK065378] | 137.434
CCOC(=O)C(CNC(=O)c1c(CC)noc1C)Cc1ccccc1 (stereo not drawn) [CBK305961] | 124.532
CS(=O)(=O)Nc1cccc(-c2nnn[nH]2)c1 [CBK062150] | 189.522
CCc1c(C)sc(NC(=O)C2C3C=CC(C3)C2C(=O)O)c1C(N)=O (stereo not drawn) [CBK265433] | 121.449
O=C(CSc1nnc(-c2ccncc2)n1-c1ccccc1)N/N=C/c1ccco1 [CBK262828] | 100
O=C(NCCn1cncn1)C1(c2ccccc2F)CC1 [CBK283087] | 108.489
FC(F)(F)c1cccc(OCCN2CCOCC2)n1 [CBK113289] | 58.8853
COC(=O)[C@@H]1CN(C(=O)c2ccc(OC)cc2)CCN1C(C)=O [CBK289578] | 134.638
OC1CCN(CC(O)Cn2c3ccccc3c3ccccc32)CC1 (stereo not drawn) [CBK305784] | 94.5851
O=[N+]([O-])c1cnc(NCCCn2ccnc2)c([N+](=O)[O-])c1 [CBK262511] | 106.413
CN(C)S(=O)(=O)N(CC(=O)NCc1ccccc1Cl)c1ccccc1 [CBK269081] | 90.1379
O=C(N[C@@H](Cn1cc(Cl)c(=O)[nH]c1=O)C(=O)O)C1CCC1 [CBK289659] | 160.07
